Assay: general procedure: solution-phase peptide synthesis; N-(3-dimethylaminopropyl)-N'-ethylcarbodiimide hydrochloride / 1-hydroxy-1H-benz
Conditions: bis-trifluoroacetate, hydrochloride for some examples

Row | Substance | step yield (coupling step) | step yield (late stage modification step)
1 | 20-O-[Prolyl-leucyl-glycyl-leucyl-histidyl-valyl]-camptothecin bis-trifluoro-acetate | 77% | 91%
2 | N-tert-butoxycarbonyl-prolyl-leucyl-glycyl-leucin | 42% | 
